# Measured values: patent US20260193531A1, “LIQUID WEIGHTING AGENTS FOR OIL-BASED FLUIDS” (Albemarle Corporation, priority 2022, published 2026)
# Tests used:
# [1] = Total gas production in the anaerobic biodegradation method (pressure transducer); settings: Duration 275 days
# [2] = Closed-bottle anaerobic biodegradation test, EPA Method 1647 (275 days); settings: Pass/Fail
# Method: Anaerobic biodegradation testing. […] For each substance, four samples were run. Each test was compared to separate standard samples containing ethyl oleate, squalane, 1-hexadecene, C16-18 internal olefin, or no additive. To pass the test, the sample must have more net biodegradation than the C16-18 internal olefin. The testing procedure was as follows: • 1. Each test mixture was prepared by combining with 2000 mg carbon (sample) per kg of natural sediment; 30 grams of the mixture were used for each sample run. The carbon content of the sample was measured before mixing the sample with the sediment. […] After a bottle was capped, a nitrogen sparge was employed to remove air in the headspace of the bottle before incubation was started. • 3. During the incubation period, the sample is kept at a constant temperature of 29±1° C. • 4. […] Each sample was brought to ambient temperature to make each measurement. Gas production was measured with a pressure gauge, and barometric pressure was also measured at the time of measurement to make volume corrections.
smiles,measurement,setting,value
C=CCCCCCCCCCCCCCC [1-hexadecene],Total gas production,[1],82.35 mL
"CCCCCC(=O)OCC(CBr)(CBr)COC(=O)CCCCC [2,2-bis(bromomethyl)1,3-propanediol-1,3-dihexanoate]",Result,[2]; Duration 275 days,Fail
"CC(C)C(=O)OCC(Br)=CBr [2,3-dibromoallyl 2-methylpropanoate]",Result,[2]; Duration 67 days,Fail
"CC(C)C(=O)OC/C(Br)=C(\Br)COC(=O)C(C)C [(2E)-2,3-dibromobut-2-ene-1,4-diyl bis(2-methylpropanoate)]",Result,[2]; Duration 67 days,Fail
"CCC(=O)OC/C(Br)=C(\Br)COC(=O)CC [(2E)-2,3-dibromobut-2-ene-1,4-diyl bis(propanoate)]",Result,[2]; Duration 275 days,Pass
"O=C(CBr)OC/C=C\COC(=O)CBr [(2Z)-but-2-ene-1,4-diyl bis(bromoacetate)]",Result,[2]; Duration 275 days,Fail
"CCCC(=O)OCc1cc(Br)cc(Br)c1 [(3,5-dibromophenyl)methyl butyrate]",Result,[2]; Duration 275 days,Fail
"CCCCC(=O)OCc1cc(Br)cc(Br)c1 [(3,5-dibromophenyl)methyl pentanoate]",Result,[2]; Duration 275 days,Fail
CCCCCCCC/C=C\CCCCCCCC(=O)OCC [ethyl oleate],Total gas production,[1],126.03 mL
"O=C(CBr)OCC(COC(=O)CBr)OC(=O)CBr [propane-1,2,3-triyl tris(bromoacetate)]",Result,[2]; Duration 275 days,Fail
CC(C)CCCC(C)CCCC(C)CCCCC(C)CCCC(C)CCCC(C)C (centres unmarked) [squalane],Total gas production,[1],24.97 mL
"CC(C)C(=O)OCC(CBr)(CBr)CBr [tribromoneopentyl 2-methylpropanoate, 3-bromo-2,2-bis(bromomethyl)propyl 2-methylpropanoate]",Result,[2]; Duration 150 days,Fail
"CCCCCC(=O)OCC(CBr)(CBr)CBr [tribromoneopentyl hexanoate, 3-bromo-2,2-bis(bromomethyl)propyl hexanoate]",Result,[2]; Duration 67 days,Fail
"CCCCC(=O)OCC(CBr)(CBr)CBr [tribromoneopentyl valerate, 3-bromo-2,2-bis(bromomethyl)propyl pentanoate]",Result,[2]; Duration 150 days,Fail
